The list shows a part of the results.
Tests used:
Test in all cases: log2 fold change, soluble protein after heating vs DMSO (PISA); higher = thermal stabilisation; K562 lysate, 10 uM; active = over 0.2 and 3.5 SD of the protein, either way, in both replicates (recomputed)
nilotinib = compound: Cc1cn(-c2cc(NC(=O)c3ccc(C)c(Nc4nccc(-c5cccnc5)n4)c3)cc(C(F)(F)F)c2)cn1 [nilotinib]
Summary of the method: (§1)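 To prepare the extract, K562 pellets were dounce-homogenised in PBS pH 7.4 with 1 mM MgCl2, giving crude material at 1 mg/mL protein. This was treated with 10 μM compound for 30 min, then heated in aliquots for 3 min over 48°C-58°C before pooling and addition of NP-40 to 0.5% at 4°C. Centrifugation at 21,000xg for 90 min left soluble protein in the supernatant, which TMTpro 16plex LC-MS/MS quantified with equalised channel sums. Results are log-two fold changes in thermal stability compared with solvent controls, from duplicates.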

Sequences of proteins named here, by UniProt entry; tags and fusion partners are left off. A change or cut given only in a name is not applied to a line headed by its entry.
UniProt Q9H299: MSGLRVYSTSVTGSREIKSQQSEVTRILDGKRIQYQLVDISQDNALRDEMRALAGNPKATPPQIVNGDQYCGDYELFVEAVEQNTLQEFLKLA
UniProt Q86XK3: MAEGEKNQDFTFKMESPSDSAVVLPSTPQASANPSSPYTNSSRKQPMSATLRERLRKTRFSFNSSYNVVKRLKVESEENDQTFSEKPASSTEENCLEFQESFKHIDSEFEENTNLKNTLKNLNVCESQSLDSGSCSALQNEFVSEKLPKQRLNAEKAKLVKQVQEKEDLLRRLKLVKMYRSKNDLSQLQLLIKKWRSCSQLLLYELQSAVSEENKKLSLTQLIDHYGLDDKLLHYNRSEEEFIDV
UniProt Q96NB2: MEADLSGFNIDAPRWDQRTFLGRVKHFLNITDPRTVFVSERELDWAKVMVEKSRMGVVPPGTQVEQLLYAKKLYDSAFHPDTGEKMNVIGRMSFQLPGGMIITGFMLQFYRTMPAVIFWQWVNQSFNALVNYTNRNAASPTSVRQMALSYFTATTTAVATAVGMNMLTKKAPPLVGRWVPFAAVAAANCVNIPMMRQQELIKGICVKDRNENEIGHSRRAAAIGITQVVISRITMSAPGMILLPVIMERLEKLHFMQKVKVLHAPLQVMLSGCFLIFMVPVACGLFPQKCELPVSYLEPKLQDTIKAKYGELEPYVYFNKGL
UniProt Q587I9: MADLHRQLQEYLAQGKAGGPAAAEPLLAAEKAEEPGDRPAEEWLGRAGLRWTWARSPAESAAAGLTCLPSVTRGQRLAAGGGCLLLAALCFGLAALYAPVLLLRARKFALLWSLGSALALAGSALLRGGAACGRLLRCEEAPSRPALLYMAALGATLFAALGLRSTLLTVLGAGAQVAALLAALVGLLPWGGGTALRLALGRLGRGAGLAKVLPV
UniProt P30740: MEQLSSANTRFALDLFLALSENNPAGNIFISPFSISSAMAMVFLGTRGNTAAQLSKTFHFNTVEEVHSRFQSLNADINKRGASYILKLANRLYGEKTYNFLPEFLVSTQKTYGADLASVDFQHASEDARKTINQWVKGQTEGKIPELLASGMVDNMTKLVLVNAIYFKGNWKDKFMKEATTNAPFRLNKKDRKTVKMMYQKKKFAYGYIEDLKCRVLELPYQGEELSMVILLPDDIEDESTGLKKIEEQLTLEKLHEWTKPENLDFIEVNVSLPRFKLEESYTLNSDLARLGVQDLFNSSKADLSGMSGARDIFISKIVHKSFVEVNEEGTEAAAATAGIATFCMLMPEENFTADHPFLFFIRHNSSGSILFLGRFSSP
UniProt Q8IXJ6: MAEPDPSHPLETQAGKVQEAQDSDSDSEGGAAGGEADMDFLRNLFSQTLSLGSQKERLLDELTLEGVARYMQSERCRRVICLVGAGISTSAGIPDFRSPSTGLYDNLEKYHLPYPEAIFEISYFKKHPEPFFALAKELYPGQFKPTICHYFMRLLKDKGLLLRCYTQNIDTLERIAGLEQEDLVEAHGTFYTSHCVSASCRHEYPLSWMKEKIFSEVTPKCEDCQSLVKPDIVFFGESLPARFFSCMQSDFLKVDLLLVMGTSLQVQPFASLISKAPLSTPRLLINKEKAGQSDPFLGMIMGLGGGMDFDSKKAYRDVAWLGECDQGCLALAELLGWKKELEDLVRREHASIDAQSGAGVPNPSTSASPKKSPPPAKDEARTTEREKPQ
UniProt P58004: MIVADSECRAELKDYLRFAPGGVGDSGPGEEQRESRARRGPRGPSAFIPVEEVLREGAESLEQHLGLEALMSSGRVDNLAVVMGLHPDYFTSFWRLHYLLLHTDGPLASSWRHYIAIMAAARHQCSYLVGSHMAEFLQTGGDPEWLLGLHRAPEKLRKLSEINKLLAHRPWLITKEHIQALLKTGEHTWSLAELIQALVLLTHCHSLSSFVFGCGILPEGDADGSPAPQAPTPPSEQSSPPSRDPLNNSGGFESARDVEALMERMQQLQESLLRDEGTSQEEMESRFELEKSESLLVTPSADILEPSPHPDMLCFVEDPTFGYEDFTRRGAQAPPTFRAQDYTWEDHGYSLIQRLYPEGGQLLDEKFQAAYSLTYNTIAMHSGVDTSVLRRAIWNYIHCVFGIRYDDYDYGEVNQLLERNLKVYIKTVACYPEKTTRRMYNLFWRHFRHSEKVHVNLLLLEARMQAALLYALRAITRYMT
UniProt Q9BRV8: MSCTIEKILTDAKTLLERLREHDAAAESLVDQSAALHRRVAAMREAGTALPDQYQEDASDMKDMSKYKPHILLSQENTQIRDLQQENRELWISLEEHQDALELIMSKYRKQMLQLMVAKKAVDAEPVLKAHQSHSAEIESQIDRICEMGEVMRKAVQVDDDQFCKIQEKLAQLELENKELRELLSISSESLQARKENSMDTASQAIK
UniProt Q12872: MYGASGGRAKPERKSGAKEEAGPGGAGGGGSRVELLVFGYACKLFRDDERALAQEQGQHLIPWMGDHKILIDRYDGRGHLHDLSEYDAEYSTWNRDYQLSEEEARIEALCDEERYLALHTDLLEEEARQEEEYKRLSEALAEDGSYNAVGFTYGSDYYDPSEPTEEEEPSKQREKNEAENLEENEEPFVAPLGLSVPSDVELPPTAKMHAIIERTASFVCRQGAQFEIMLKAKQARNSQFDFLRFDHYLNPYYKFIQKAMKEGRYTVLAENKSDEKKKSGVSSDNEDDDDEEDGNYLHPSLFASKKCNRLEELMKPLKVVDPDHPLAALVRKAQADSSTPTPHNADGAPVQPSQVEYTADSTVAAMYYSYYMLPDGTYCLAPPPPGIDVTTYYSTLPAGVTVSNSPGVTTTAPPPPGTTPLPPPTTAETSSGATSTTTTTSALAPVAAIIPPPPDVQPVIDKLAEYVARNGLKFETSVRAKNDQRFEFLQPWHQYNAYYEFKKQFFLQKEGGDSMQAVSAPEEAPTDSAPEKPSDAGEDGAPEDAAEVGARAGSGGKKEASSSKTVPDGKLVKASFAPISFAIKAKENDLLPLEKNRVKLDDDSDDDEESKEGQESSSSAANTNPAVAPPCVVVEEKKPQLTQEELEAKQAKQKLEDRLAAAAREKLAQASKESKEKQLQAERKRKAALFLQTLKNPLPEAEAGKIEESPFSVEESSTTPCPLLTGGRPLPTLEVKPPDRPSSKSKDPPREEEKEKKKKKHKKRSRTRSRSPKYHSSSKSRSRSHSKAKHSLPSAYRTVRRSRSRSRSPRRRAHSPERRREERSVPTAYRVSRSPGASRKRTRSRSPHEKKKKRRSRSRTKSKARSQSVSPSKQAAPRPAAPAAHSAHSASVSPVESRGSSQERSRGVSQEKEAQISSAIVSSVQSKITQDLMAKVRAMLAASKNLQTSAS
UniProt P36955: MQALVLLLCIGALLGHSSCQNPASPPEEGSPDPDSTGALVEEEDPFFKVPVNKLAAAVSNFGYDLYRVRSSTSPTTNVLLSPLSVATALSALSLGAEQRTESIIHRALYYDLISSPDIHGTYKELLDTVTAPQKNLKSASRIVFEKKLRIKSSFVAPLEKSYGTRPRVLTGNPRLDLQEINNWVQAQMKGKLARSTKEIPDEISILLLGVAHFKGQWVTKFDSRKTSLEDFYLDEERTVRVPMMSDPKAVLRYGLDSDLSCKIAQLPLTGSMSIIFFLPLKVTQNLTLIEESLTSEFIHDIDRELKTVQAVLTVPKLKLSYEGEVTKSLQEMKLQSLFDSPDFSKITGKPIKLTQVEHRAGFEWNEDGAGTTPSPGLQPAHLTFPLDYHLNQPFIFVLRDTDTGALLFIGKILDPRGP
UniProt Q99574: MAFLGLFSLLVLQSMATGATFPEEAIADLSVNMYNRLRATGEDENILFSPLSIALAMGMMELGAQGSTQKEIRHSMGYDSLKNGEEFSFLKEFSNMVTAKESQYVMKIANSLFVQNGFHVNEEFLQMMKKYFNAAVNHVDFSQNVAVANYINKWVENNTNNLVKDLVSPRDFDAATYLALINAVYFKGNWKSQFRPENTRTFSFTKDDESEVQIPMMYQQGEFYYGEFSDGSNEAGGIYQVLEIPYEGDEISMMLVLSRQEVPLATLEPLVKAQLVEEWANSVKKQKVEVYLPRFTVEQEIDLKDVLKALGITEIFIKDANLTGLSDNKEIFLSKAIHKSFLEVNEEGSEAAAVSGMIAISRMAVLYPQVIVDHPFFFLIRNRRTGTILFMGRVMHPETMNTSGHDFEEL
UniProt Q08357: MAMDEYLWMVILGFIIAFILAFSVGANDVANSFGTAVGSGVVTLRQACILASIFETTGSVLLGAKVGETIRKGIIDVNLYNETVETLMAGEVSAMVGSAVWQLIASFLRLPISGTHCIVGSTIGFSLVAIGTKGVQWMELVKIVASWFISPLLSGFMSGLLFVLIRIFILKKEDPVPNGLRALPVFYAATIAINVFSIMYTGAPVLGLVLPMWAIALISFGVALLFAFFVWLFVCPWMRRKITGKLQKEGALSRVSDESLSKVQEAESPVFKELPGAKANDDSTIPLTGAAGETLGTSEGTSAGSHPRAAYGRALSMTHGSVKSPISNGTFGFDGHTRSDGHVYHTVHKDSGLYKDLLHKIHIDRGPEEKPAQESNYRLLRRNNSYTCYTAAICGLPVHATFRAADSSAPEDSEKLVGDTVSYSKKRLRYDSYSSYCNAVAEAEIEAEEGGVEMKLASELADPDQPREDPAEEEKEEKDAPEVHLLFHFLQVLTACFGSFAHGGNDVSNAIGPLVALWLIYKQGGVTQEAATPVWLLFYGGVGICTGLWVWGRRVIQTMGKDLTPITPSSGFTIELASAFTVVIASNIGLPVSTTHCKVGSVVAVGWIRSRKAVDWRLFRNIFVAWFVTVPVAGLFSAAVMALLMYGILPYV
UniProt Q8N196: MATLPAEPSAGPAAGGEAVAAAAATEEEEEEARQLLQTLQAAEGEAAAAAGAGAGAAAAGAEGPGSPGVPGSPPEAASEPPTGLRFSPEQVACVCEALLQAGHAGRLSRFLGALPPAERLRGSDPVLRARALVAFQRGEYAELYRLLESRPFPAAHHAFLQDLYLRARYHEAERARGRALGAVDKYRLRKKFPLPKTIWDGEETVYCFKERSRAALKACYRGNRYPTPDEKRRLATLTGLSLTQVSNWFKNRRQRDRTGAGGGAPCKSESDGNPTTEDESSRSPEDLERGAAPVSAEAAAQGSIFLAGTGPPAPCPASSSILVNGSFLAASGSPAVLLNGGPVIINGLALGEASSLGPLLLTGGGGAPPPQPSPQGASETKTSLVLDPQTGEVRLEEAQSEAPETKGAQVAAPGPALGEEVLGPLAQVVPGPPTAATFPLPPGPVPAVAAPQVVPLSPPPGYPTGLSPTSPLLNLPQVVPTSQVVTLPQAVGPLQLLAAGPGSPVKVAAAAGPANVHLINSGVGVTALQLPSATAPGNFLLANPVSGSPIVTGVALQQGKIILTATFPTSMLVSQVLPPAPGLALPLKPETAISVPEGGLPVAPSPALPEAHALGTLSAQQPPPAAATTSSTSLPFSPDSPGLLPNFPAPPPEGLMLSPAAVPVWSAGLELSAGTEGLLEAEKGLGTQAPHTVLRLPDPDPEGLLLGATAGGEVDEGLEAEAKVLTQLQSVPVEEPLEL
UniProt Q9H0F6: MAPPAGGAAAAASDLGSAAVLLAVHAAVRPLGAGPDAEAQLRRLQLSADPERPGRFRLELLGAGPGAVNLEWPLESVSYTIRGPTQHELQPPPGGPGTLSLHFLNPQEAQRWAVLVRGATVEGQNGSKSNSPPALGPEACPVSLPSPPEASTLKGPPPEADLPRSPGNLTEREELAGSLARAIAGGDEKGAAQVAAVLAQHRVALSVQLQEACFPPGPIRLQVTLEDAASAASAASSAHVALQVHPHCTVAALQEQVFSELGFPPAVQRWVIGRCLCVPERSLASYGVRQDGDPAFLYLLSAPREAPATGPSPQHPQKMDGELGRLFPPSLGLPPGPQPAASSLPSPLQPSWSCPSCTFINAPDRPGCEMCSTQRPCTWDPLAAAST
UniProt O95562: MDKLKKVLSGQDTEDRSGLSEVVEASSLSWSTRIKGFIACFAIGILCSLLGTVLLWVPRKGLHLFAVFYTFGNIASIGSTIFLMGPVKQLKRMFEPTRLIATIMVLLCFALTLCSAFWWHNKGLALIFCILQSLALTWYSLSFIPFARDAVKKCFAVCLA
UniProt Q9BX95: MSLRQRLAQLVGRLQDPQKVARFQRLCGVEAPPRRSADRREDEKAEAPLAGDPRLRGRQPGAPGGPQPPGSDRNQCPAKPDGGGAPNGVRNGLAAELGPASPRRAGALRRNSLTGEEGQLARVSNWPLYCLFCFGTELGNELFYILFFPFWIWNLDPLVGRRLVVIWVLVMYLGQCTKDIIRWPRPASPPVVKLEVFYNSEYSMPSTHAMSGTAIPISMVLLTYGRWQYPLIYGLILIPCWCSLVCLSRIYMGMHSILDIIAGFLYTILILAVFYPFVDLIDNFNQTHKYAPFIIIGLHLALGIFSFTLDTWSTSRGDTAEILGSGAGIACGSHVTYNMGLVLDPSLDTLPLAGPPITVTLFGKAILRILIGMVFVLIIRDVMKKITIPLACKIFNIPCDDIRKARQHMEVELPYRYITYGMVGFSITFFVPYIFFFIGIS
UniProt Q9BWJ5: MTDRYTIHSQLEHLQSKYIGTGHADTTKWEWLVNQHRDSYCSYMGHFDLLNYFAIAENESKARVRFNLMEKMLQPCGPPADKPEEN

[1] = compound: Cc1nc(Nc2n[nH]c3c2CN(C(=O)N[C@H](CN(C)C)c2ccccc2)C3(C)C)c2sccc2n1
Summary of the method: as §1

dasatinib = compound: Cc1nc(Nc2ncc(C(=O)Nc3c(C)cccc3Cl)s2)cc(N2CCN(CCO)CC2)n1 [dasatinib]
Summary of the method: as §1

[2] = compound: Cc1ncc(-c2ccnc(Nc3ccc(S(C)(=O)=O)cc3)n2)n1C(C)C
Summary of the method: as §1

[3] = compound: Cn1cc(-c2ccc3c(c2)CCN3C(=O)Cc2cccc(C(F)(F)F)c2)c2c(N)ncnc21
Summary of the method: as §1

quisinostat = compound: Cn1cc(CNCC2CCN(c3ncc(C(=O)NO)cn3)CC2)c2ccccc21 [quisinostat]
Summary of the method: as §1

tipifarnib = compound: Cn1cncc1[C@@](N)(c1ccc(Cl)cc1)c1ccc2c(c1)c(-c1cccc(Cl)c1)cc(=O)n2C [tipifarnib]
Summary of the method: as §1

[4] = compound: NC(=O)Nc1cc(-c2cccc(F)c2)sc1C(=O)N[C@H]1CCCNC1
Summary of the method: as §1

[5] = compound: NC(=O)c1cnc(N[C@@H]2CCCC[C@@H]2N)nc1Nc1cccc(-n2nccn2)c1
Summary of the method: as §1

[6] = compound: NC1(c2ccc(-c3nc4ccn5c(=O)[nH]nc5c4cc3-c3ccccc3)cc2)CCC1
Summary of the method: as §1

Measured: log2 fold change

SH3BGRL3 (UniProt Q9H299)
inactive: nilotinib 0.02 | [1] -0.013 | dasatinib 0.017 | [2] 0.023 | [3] 0.002 | quisinostat -0.02 | tipifarnib 0.008 | [4] -0.016 | [5] -0.054 | [6] 0.018

SFR1 isoform 2 (UniProt Q86XK3)
inactive: nilotinib -0.029 | [1] 0.068 | dasatinib 0.055 | [2] 0.045 | [3] -0.058 | quisinostat -0.029 | tipifarnib 0.072 | [4] -0.004 | [5] 0.02 | [6] -0.039

SKA1 (UniProt Q96BD8)
inactive: nilotinib -0.095 | [1] 0.052 | dasatinib -0.034 | [2] 0.023 | [3] -0.032 | quisinostat -0.104 | tipifarnib 0.039 | [4] 0.038 | [5] -0.042 | [6] 0.014

SFXN2 (UniProt Q96NB2)
inactive: nilotinib 0.066 | [1] -0.054 | dasatinib 0.013 | [2] -0.052 | [3] -0.005 | quisinostat 0.019 | tipifarnib -0.036 | [4] -0.012 | [5] 0 | [6] -0.006

SF1 isoform 5 (UniProt Q15637)
inactive: nilotinib 0.012 | [1] 0.014 | dasatinib -0.025 | [2] 0.009 | [3] 0.008 | quisinostat 0.027 | tipifarnib -0.004 | [4] -0.062 | [5] -0.01 | [6] -0.013

SFT2D3 (UniProt Q587I9)
inactive: nilotinib 0.052 | [1] -0.042 | dasatinib 0.035 | [2] 0.056 | [3] 0.028 | quisinostat 0.019 | tipifarnib 0.02 | [4] -0.173 | [5] 0.04 | [6] -0.041

SERPINB1 (UniProt P30740)
inactive: nilotinib 0.018 | [1] -0.009 | dasatinib 0.026 | [2] 0.014 | [3] 0.007 | quisinostat 0.022 | tipifarnib 0.001 | [4] 0.002 | [5] -0.041 | [6] 0.009

SET isoform 2 (UniProt Q01105)
inactive: nilotinib 0.006 | [1] -0.029 | dasatinib 0.018 | [2] 0.011 | [3] -0.023 | quisinostat -0.04 | tipifarnib 0.02 | [4] -0.004 | [5] 0.016 | [6] -0.009

SF3B2 (UniProt Q13435)
inactive: nilotinib -0.022 | [1] -0.004 | dasatinib 0.004 | [2] -0.034 | [3] 0.003 | quisinostat -0.005 | tipifarnib 0.003 | [4] -0.003 | [5] 0.008 | [6] 0

SHFL (UniProt Q9NUL5)
inactive: nilotinib 0.015 | [1] -0.034 | dasatinib 0.043 | [2] -0.088 | [3] -0.035 | quisinostat -0.193 | tipifarnib 0.005 | [4] -0.006 | [5] -0.009 | [6] 0.064

SIRT2 (UniProt Q8IXJ6)
inactive: nilotinib 0.005 | [1] 0.041 | dasatinib 0.015 | [2] -0.005 | [3] 0.043 | quisinostat 0.017 | tipifarnib -0.086 | [4] -0.05 | [5] -0.015 | [6] -0.027

SHTN1 (UniProt A0MZ66)
inactive: nilotinib 0.001 | [1] 0.009 | dasatinib -0.016 | [2] -0.002 | [3] 0.015 | quisinostat -0.011 | tipifarnib 0.002 | [4] 0.005 | [5] 0.007 | [6] 0.004

SERPINA12 (UniProt Q8IW75)
inactive: nilotinib 0.145 | [1] 0.225 | dasatinib -0.39 | [2] -0.234 | [3] -0.057 | quisinostat 0.152 | tipifarnib -0.081 | [4] 0.017 | [5] 0.224 | [6] 0.169

SESN2 (UniProt P58004)
inactive: nilotinib 0.019 | [1] 0.027 | dasatinib -0.023 | [2] 0.021 | [3] 0.028 | quisinostat -0.051 | tipifarnib 0.007 | [4] 0.092 | [5] 0.034 | [6] -0.057

SIKE1 (UniProt Q9BRV8)
inactive: nilotinib -0.044 | [1] 0.022 | dasatinib 0.074 | [2] 0.032 | [3] -0.002 | quisinostat -0.078 | tipifarnib -0.089 | [4] 0.014 | [5] 0.022 | [6] -0.053

SLC19A1 (UniProt P41440)
inactive: nilotinib -0.026 | [1] 0.014 | dasatinib 0.019 | [2] -0.032 | [3] -0.017 | quisinostat -0.077 | tipifarnib -0.01 | [4] -0.015 | [5] -0.027 | [6] -0.004

SETDB1 (UniProt Q15047)
inactive: nilotinib 0.01 | [1] -0.011 | dasatinib 0.051 | [2] -0.056 | [3] 0.047 | quisinostat -0.014 | tipifarnib 0.013 | [4] 0.004 | [5] 0.056 | [6] -0.013

Taken from above (two entries):
SERPINA12 (UniProt Q8IW75)
inactive: nilotinib 0.145 | [1] 0.225 | dasatinib -0.39 | [2] -0.234 | [3] -0.057 | quisinostat 0.152 | tipifarnib -0.081 | [4] 0.017 | [5] 0.224 | [6] 0.169

SESN2 (UniProt P58004)
inactive: nilotinib 0.019 | [1] 0.027 | dasatinib -0.023 | [2] 0.021 | [3] 0.028 | quisinostat -0.051 | tipifarnib 0.007 | [4] 0.092 | [5] 0.034 | [6] -0.057

Carrying on.

SFSWAP isoform 2 (UniProt Q12872)
inactive: nilotinib -0.013 | [1] 0.019 | dasatinib 0.014 | [2] 0.09 | [3] 0.011 | quisinostat -0.012 | tipifarnib 0.01 | [4] -0.074 | [5] -0.053 | [6] 0.067

SERPINF1 (UniProt P36955)
inactive: nilotinib -0.007 | [1] -0.032 | dasatinib 0.001 | [2] 0.001 | [3] -0.106 | quisinostat 0.019 | tipifarnib -0.007 | [4] -0.004 | [5] -0.027 | [6] 0.001

SERPINI1 (UniProt Q99574)
inactive: nilotinib -0.04 | [1] -0.013 | dasatinib 0.038 | [2] -0.034 | [3] -0.013 | quisinostat 0.035 | tipifarnib 0.036 | [4] 0.003 | [5] 0.009 | [6] -0.015

SGTB (UniProt Q96EQ0)
inactive: nilotinib 0.057 | [1] 0.012 | dasatinib -0.008 | [2] -0.023 | [3] 0.012 | quisinostat -0.012 | tipifarnib -0.013 | [4] -0.056 | [5] 0.02 | [6] 0.02

SLC20A2 (UniProt Q08357)
inactive: nilotinib 0.03 | [1] -0.247 | dasatinib -0.009 | [2] -0.065 | [3] 0.012 | quisinostat 0.052 | tipifarnib 0.002 | [4] -0.06 | [5] 0.015

SIX5 (UniProt Q8N196)
inactive: nilotinib 0.06 | [1] -0.05 | dasatinib 0.02 | [2] 0.074 | [3] -0.064 | quisinostat -0.141 | tipifarnib 0.02 | [4] 0.08 | [5] 0.092 | [6] -0.025

SHARPIN (UniProt Q9H0F6)
inactive: nilotinib 0.097 | [1] -0.106 | dasatinib 0.031 | [2] 0.108 | [3] -0.093 | quisinostat 0.055 | tipifarnib 0.149 | [4] -0.004 | [5] 0.097 | [6] 0.073

SGPL1 (UniProt O95470)
inactive: nilotinib 0.06 | [1] -0.017 | dasatinib -0.039 | [2] 0.051 | [3] -0.003 | quisinostat 0.052 | tipifarnib 0.108 | [4] 0.008 | [5] -0.022 | [6] -0.003

SERPINB6, A0A087X1N8
inactive: nilotinib 0.031 | [1] -0.011 | dasatinib 0.031 | [2] 0.009 | [3] -0.044 | quisinostat 0.023 | tipifarnib -0.001 | [4] 0.001 | [5] -0.021 | [6] 0.008

SIL1 (UniProt Q9H173)
inactive: nilotinib -0.046 | [1] -0.009 | dasatinib -0.012 | [2] -0.043 | [3] 0.016 | quisinostat -0.049 | tipifarnib -0.003 | [4] 0.025 | [5] -0.013 | [6] -0.083

SFT2D2 (UniProt O95562)
inactive: nilotinib -0.126 | [1] 0.126 | dasatinib -0.108 | [2] -0.02 | [3] -0.078 | quisinostat 0.028 | tipifarnib 0.022 | [4] -0.044 | [5] -0.059 | [6] -0.098

SGPP1 (UniProt Q9BX95)
inactive: nilotinib 0.037 | [1] 0.036 | dasatinib -0.009 | [2] 0.052 | [3] 0 | quisinostat 0.044 | tipifarnib 0.011 | [4] -0.249 | [5] -0.046 | [6] 0.05

SF3B5 (UniProt Q9BWJ5)
inactive: nilotinib 0.146 | [1] -0.083 | dasatinib -0.035 | [2] -0.006 | [3] 0.016 | quisinostat -0.051 | tipifarnib 0.036 | [4] 0.03 | [5] -0.104 | [6] 0.021

Reference: the supplement of paper PMC10849652
